No constants are given. Whether binding was seen depends on the method and setting. Some results given as binding are weak or reduced against the parent protein; the word gives no strength. Tags and fused reporters may be left off the sequences shown.
Molecular target: recombinant D72 (rD72), proteolytically processed fragment of Chlamydia trachomatis serovar E PmpD, residues 68-761, N-terminal 10x His-Tag (Chlamydia trachomatis serovar E (DK-20)) (UniProt O84818)
Experiment: SEC; rD72 in PBS pH 7.4 on Superose 6 Increase 3.2/300, 0.05 ml/min, 4°C; fractions checked by SDS-PAGE; both purified

B1: recombinant D72 (rD72), proteolytically processed fragment of Chlamydia trachomatis serovar E PmpD, residues 68-761, N-terminal 10x His-Tag (domain or fragment)
chain: DSQAEGQYRLIVGDPSSFQEKDADTLPGKVEQSTLFSVTNPVVFQGVDQQDQVSSQGLICSFTSSNLDSPRDGESFLGIAFVGDSSKAGITLTDVKASLSGAALYSTEDLIFEKIKGGLEFASCSSLEQGGACAAQSILIHDCQGLQVKHCTTAVNAEGSSANDHLGFGGGAFFVTGSLSGEKSLYMPAGDMVVANCDGAISFEGNSANFANGGAIAASGKVLFVANDKKTSFIENRALSGGAIAASSDIAFQNCAELVFKGNCAIGTEDKGSLGGGAISSLGTVLLQGNHGITCDKNESASQGGAIFGKNCQISDNEGPVVFRDSTACLGGGAIAAQEIVSIQNNQAGISFEGGKASFGGGIACGSFSSAGGASVLGTIDISKNLGAISFSRTLCTTSDLGQMEYQGGGALFGENISLSENAGVLTFKDNIVKTFASNGKILGGGAILATGKVEITNNSEGISFTGNARAPQALPTQEEFPLFSKKEGRPLSSGYSGGGAILGREVAILHNAAVVFEQNRLQCSEEEATLLGCCGGGAVHGMDSTSIVGNSSVRFGNNYAMGQGVSGGALLSKTVQLAGNGSVDFSRNIASLGGGALQASEGNCELVDNGYVLFRDNRGRVYGGAISCLRGDVVISGNKGRVEFKDNIATRLYVEETVEKVEEVEPAPEQKDNNELSFLGRAEQSFITAANQA
notes: In solution a high-molecular-weight oligomer (720-1048 kDa by Blue Native-PAGE, calculated 10- to 15-mer); also called rPmpD; His-PmpD; source: E. coli Origami, purified (Ni-NTA agarose, dialysed in PBS); not shown: 10xHis, N-terminal, kept; copies: 10-15
For B1, the binding was “binds”.

— paper PMC11807975, “The secreted host-cell protein clusterin interacts with PmpD and promotes Chlamydia trachomatis infection” (Frontiers in Cellular and Infection Microbiology, 2024)
